The target in this test is p53 (human (endogenous in HEK-293)) (UniProt P04637). In words: co-IP; HEK-293 cell lysate immunoprecipitated with p53 (DO-1) antibody, immunoblotted.

No constants are given. Whether binding was seen depends on the method and setting. Binding seen in cells or lysates may run through a third protein. Some binding calls cover weakened binding; strength is not graded here.

B1: FAM188B (protein, UniProt Q4G0A6 1-757)
chain: MDSLFVEEVAASLVREFLSRKGLKKTCVTMDQERPRSDLSINNRNDLRKVLHLEFLYKENKAKENPLKTSLELITRYFLDHFGNTANNFTQDTPIPALSVPKKNNKVPSRCSETTLVNIYDLSDEDAGWRTSLSETSKARHDNLDGDVLGNFVSSKRPPHKSKPMQTVPGETPVLTSAWEKIDKLHSEPSLDVKRMGENSRPKSGLIVRGMMSGPIASSPQDSFHRHYLRRSSPSSSSTQPQEESRKVPELFVCTQQDILASSNSSPSRTSLGQLSELTVERQKTTASSPPHLPSKRLPPWDRARPRDPSEDTPAVDGSTDTDRMPLKLYLPGGNSRMTQERLERAFKRQGSQPAPVRKNQLLPSDKVDGELGALRLEDVEDELIREEVILSPVPSVLKLQTASKPIDLSVAKEIKTLLFGSSFCCFNEEWKLQSFSFSNTASLKYGIVQNKGGPCGVLAAVQGCVLQKLLFEGDSKADCAQGLQPSDAHRTRCLVLALADIVWRAGGRERAVVALASRTQQFSPTGKYKADGVLETLTLHSLTCYEDLVTFLQQSIHQFEVGPYGCILLTLSAILSRSTELIRQDFDVPTSHLIGAHGYCTQELVNLLLTGKAVSNVFNDVVELDSGDGNITLLRGIAARSDIGFLSLFEHYNMCQVGCFLKTPRFPIWVVCSESHFSILFSLQPGLLRDWRTERLFDLYYYDGLANQQEQIRLTIDTTQTISEDTDNDLVPPLELCIRTKWKGASVNWNGSDPIL
Regarding B1, the binding entry is recorded as “binds”.

(Values after paper PMC5967306.)
